According to US6586200B2, “Method for detecting substances inhibiting the bacterial type III secretion mechanism and function of secretory proteins thereof” (The Kitasato Institute, priority 2002, dated 2003):
At least one compound was matched to its structure with a doubt left.

Test system: EPEC cesT lacking strain
Assay: Inhibition of type III secretion-dependent hemolytic activity (microplate, absorbance at 550 nm)
Assay type: cell-based, Enteropathogenic Escherichia coli
Conditions: EPEC cesT lacking strain with rabbit erythrocyte suspension; final tetracycline 6 μg/ml; 37° C., about 90 minutes

Which “Hemolytic activity of tetracycline added sample (sample without tetracycline set to 100%), FIG. 28” value does the source give for CN(C)[C@@H]1C(O)=C(C(N)=O)C(=O)[C@@]2(O)C(O)=C3C(=O)c4c(O)cccc4[C@@](C)(O)[C@H]3C[C@@H]12 [tetracycline] here?
Its value is “significantly inhibits the hemolytic activity”.
